Experimental data as given in patent US20220344599A1, “METAL COMPLEX AND ELECTRON TRANSPORTING MATERIAL COMPRISING SAME” (DYDEN CORPORATION, priority 2019, published 2022).

Legend:
[1] = voltage-current-luminance characteristic of organic EL element with the material as electron transport layer
Excerpt: Produced were an organic electroluminescent element of the element configuration. shown in FIG. 1 (Element (A)) and an organic electroluminescent element having an element configuration exactly same as that shown in FIG. 1 except that an electron inlection layer is provided between the cathode and the electron transport layer (element (B)). The film thickness of each layer is as follows.
Element (A): anode/hole injection layer/hole transport layer/light emitting layer/electron transport layer/ cathode
Element (B): anode/hole injection layer/hole transport layer/light emitting layer/electron transport layer/electron injection layer/cathode
Electron injection layer: LiF (0.5 nm)
Liquid materials for forming an electron transport layer each were prepared by dissolving a metal complex shown in Table 2 at a concentration of 7.5 g/L in a solvent shown in Table 2.
In order to make elements including a metal alkoxide added for the purpose of achieving a further driving voltage and a longer lifetime, also prepared were liquid materials for forming an electron transport layer including a metal alkoxide as a dopant. The liquid materials for forming an electron transport layer including a metal alkoxide added each were prepared by adding a metal alkoxide solution to the solution of a metal complex. The solution of a metal complex was prepared by dissolving a metal complex shown in Table 2 at a concentration of 7.5 g/L in a solvent shown in Table 2. The metal alkoxide solution was, in the case of lithium-n-butoxide (LiOnBu), prepared by dissolving a reagent manufactured by Kojundo hemical Lab. Next, the 7.5 g/L metal complex solution and the 5 g/L metal alkoxide solution were mixed such that the content of the dopant (metal alkoxide) reached 10% by weight with respect to the metal complex, and then the mixed solution was subjected to film formation.
A comparative liquid material for forming an electron transport layer was prepared in the same manner as described above except that LiBPP was used instead of the metal complex.
For the voltage-current-luminance characteristic of the organic EL element made, a voltage from 0 V to 10 V was applied, and the current value was measured every 0.1 V using a DC voltage current source/monitor (6241A and 7351A manufactured by ADCMT).
In (2) Production of Organic Electroluminescent Element described above, using L101-Cs as the metal complex of the electron transporting material and. LiOBu as the dopant, an element including no electron injection layer (A) or an element including an electron injection layer (B) was produced. The physical property, values of driving voltage (V), current efficiency (ηc), and relative lifetime of the elements given were also shown in Table 2. The presence or absence of the electron injection. layer was also described in Table 2.
An element was produced in the same manner as in Example 1 except that the liquid material for forming an electron transport layer was replaced by one shown in Table 2 in Example 1. The physical property values of driving voltage (V), current efficiency (ηc), and relative lifetime of the elements given were also shown in Table 2.

[2] = lifetime of organic EL element (luminance half-life, constant current driving); conditions: 25° C., relative to Example 3 with electron injection layer (100)
Experimental: The lifetime of the organic EL element made was measured using a lifetime evaluation measuring apparatus (manufactured by Kyushu Keisokki Co., Ltd.). The element was placed in the thermostatic chamber at a constant temperature of 25° C., and the changes in the luminance voltage associated with constant current driving were measured. In this case, the acceleration factor for evaluation of the element was 1.758. Comparison was made based on the values of half-life, at which the luminance dropped to the half of the initial luminance, obtained in accordance with the driving time converted in terms of 100 cd/m^2.
wherein L0: initial luminance [cd/m^2], L: converted luminance [cd/m^2], T1: measured luminance half-life, and T: converted luminance half-life
The relative lifetime was based on the lifetime of Example 3 [material complex (L301-Cs)+dopant (LiOBu)+electron injection layer](100).

[3] = element (A), no electron injection layer, dopant LiOBu 10% by weight, solvent as in Table 2
[4] = element (B), LiF electron injection layer, dopant LiOBu 10% by weight, solvent as in Table 2
[5] = element (A), no electron injection layer, dopant LiOBu
[6] = element (B), LiF electron injection layer, dopant LiOBu

SMILES | Driving voltage [1, 3] [V] | Driving voltage [1, 4] [V] | Relative lifetime [2, 5] | Relative lifetime [2, 6] | Driving voltage ([1]; element (A), no electron injection layer, no dopant, 1-Heptanol) [V] | Driving voltage ([1]; element (B), LiF electron injection layer, no dopant, 1-Heptanol) [V] | Relative lifetime ([2]; element (A), no electron injection layer, no dopant) | Relative lifetime ([2]; element (B), LiF electron injection layer, no dopant)
Oc1cccc2c1nc(-c1ccccc1)n2-c1cccc(-c2ccc3ccc4cccnc4c3n2)c1 [L101-Cs] | 4.7 | 4.6 | 72 | 74 |  |  |  | 
Oc1cccc2c1nc(-c1ccccc1)n2-c1cccc(-c2ccc3ccc4cccnc4c3n2)c1 [L101-Rb] | 5 | 5 | 74 | 73 |  |  |  | 
Oc1cccc2oc3cc(-c4ccc5ccc6cccnc6c5n4)cnc3c12 [L301-Cs] | 4.4 | 4.3 | 90 | 100 |  |  |  | 
O=P(c1ccccc1)(c1ccc2ccc3cccnc3c2n1)c1ccc(O)c2c1oc1cccnc12 (stereo not shown) [L302-Cs] | 5.3 | 4.9 | 45 | 80 |  |  |  | 
O=P(c1ccccc1)(c1ccc2ccc3cccnc3c2n1)c1ccc(O)c2c1oc1cccnc12 (stereo not shown) [L302-Li] | 6.2 | 6 | 11 | 11 |  |  |  | 
O=P(c1ccccc1)(c1ccccc1)c1ccc2ccc3ccc(-c4ccc(O)c5c4oc4cccnc45)nc3c2n1 [L303-Cs] |  |  |  |  | 6.9 | 5.7 | 28 | 18
O=P(c1ccccc1)(c1ccccc1)c1ccc2ccc3ccc(-c4ccc(O)c5c4oc4cccnc45)nc3c2n1 [L303-Rb] | 4.5 | 4.5 | 16 | 16 |  |  |  | 
